Source: patent publication US7662941B2, “Embryonic stem cell self maintenance and renewal reporter” (The Trustees of the University of Princeton - Princeton …, priority 2005, dated 2010)
At least one structure is not confirmed: it was looked up by name or label, or the drawing left a doubt.

What was measured:
Type in all cases: cell-based, mouse
[1] = tested on: Nanog/GFP expression in NeFREC(g); assay: Chemical genomics screen in NeFREC(g), ES medium without LIF, Nanog/GFP by flow cytometry; settings: for Effect on Nanog/GFP expression / ES cell differentiation induced by omission of LIF: compound alone in ES medium without LIF, one and two days
Procedure: To validate the use of NeFRECs as an easy reporter cell in chemical genomics proof-of-principle studies were performed with several compounds that are known to show effects on ES cell self-renewal and differentiation or were previously tested in early embryonic development and cancer therapy. The compounds included in the experiment were RA (Sigma, Cat# R2625), Trichostatin A (TSA, Sigma, Cat# T8552, a histone deacetylase (HDAC) inhibitor), Ly294002, (CALBIOCHEM, Cat# 440202, a phosphatidylinositol 3-kinase (PI3K) inhibitor), Rapamycin (Rapa, Sigma, Cat# R0395, an inhibitor of mTOR), PD98059 (CALBIOCHEM, Cat# 513000, a MAP kinase (MAPK) inhibitor), 5-aza-2′-deoxycytidine (AZA, Sigma, Cat# A3656, an inhibitor of DNA methytransferases).
(§1) For the chemical genomics screen 2.5×10^4 cells in 0.5 ml ES medium were plated per 24-well the day before treatment. Medium without LIF supplemented with the different compounds at indicated concentrations was added 24 hrs post-plating. Medium was changed daily. Nanog/GFP levels for each sample were measured by flow cytometry one and two days post drug treatment. Average percentages of Nanog/GFP^+ cells were calculated from duplicate samples (FIG. 10A).

[2] = tested on: NeFREC(g); assay: Cell morphology of NeFREC(g) after compound treatment; settings: day 2 of treatment
Procedure: Microscopy. Microscopy was performed on a Nikon Eclipse TE2000-U microscope with appropriate filter sets, CoolSnapES (black and white/fluorescence) and DXM1200F (color) cameras, and MetaView (black and white/fluorescence) and ACT (color) image-processing software.
as §1
Addition of RA, LY294002 or PD98059 to the cultures has different effects on ES cell colony morphology.

[3] = tested on: Nanog/GFP expression in NeFREC(g); assay: Nanog/GFP expression of NeFREC(g) clones in response to RA, flow cytometry
Procedure: ES cell growth and differentiation. ES cells were maintained on gelatin-coated tissue culture plates in Dulbecco's Modified Eagels Medium (DMEM; Invitrogen/Gibco) supplemented with 15% fetal calf serum (FCS), 1 mM sodium pyruvate, 2 mM L-glutamine (Invitrogen/Gibco), 0.1 mM non-essential amino acids (Invitrogen/Gibco), 100 U/ml penicillin, 100 μg/ml streptomycin, 1×10^−4 M 2-Mercaptoethanol (2-ME) and 1000 U/ml leukemia inhibitory factor (LIF; ESGROW, Chemicon), henceforth referred to as ES medium. Medium was changed every day and cells were split every second day.
One day prior to differentiation cells were plated on gelatinized culture dishes in the aforementioned medium. […]
Cell surface staining, FACS analysis and Cell Sorting. […] Cell suspensions were analyzed on a FACS Sort (Becton Dickinson). […]
NeFREC(g) clones. To determine the dynamics of Nanog/GFP expression of NeFREC(g) clones in response to RA, 4 individual clones (numbers 4, 9, 20 and 23) were analyzed in detail (FIG. 6a upper panel). […] Nanog/GFP levels in treated cells were measured daily, day 0 to day 3, by flow cytometry. […]
To further determine the dynamics of Nanog/GFP expression of NeFREC(g), a RA dosage response experiment, ranging from 0.2 to 10 μM RA, was performed (FIG. 6B). […] Nanog/GFP expression was measured after one day and two days of RA treatment.

[4] = tested on: Gata4; assay: RT-PCR of Gata4 expression in RA-treated NeFREC(g); settings: 10 μM RA, ES medium without LIF, day 0 to 3
[5] = tested on: endogenous Nanog mRNA; assay: RT-PCR of endogenous Nanog mRNA in RA-treated NeFREC(g); settings: 10 μM RA, ES medium without LIF, day 0 to 3
[6] = tested on: Nanog/DsRedExpress (RFP) expression in NeFREC(r); assay: RFP reporter expression of NeFREC(r) clones upon RA-induced differentiation, fluorescent microscopy; settings: 1.0 μM RA, 3 NeFREC(r) clones, by day 3

## O=c1cc(N2CCOCC2)oc2c(-c3ccccc3)cccc12 [Ly294002]
[1]; RA and LY294002 combined, medium without LIF
  Effect of combination with RA on downregulation of Nanog/GFP expression: minor additive effect
[1]
  Effect on Nanog/GFP expression / ES cell differentiation induced by omission of LIF: induces downregulation of GFP with similar kinetic as does RA
[2]
  ES cell colony morphology: look more like NeFREC(g) cultured in ES medium alone

## CC1=C(/C=C/C(C)=C/C=C/C(C)=C/C(=O)O)C(C)(C)CCC1 [RA, retinoic acid]
[3]; 10 μM RA, ES medium without LIF, within one day, 4 NeFREC(g) clones
  Nanog/GFP expression: substantially downregulated
[3]; two NeFREC(g) clones, FIG. 6B
  Concentration dependence of RA-induced downregulation in Nanog/GFP: concentration dependent
[4]
  Gata4 expression (marker of early endoderm, ES cell differentiation): upregulated
[5]
  Nanog mRNA expression: downregulation
[6]
  RFP expression: dramatically reduced
[2]
  ES cell colony morphology: differentiated cell morphology

## CO[C@H]1C[C@@H]2CC[C@@H](C)[C@@](O)(O2)C(=O)C(=O)N2CCCC[C@H]2C(=O)O[C@H]([C@H](C)C[C@@H]2CC[C@@H](O)[C@H](OC)C2)CC(=O)[C@H](C)/C=C(\C)[C@@H](O)[C@@H](OC)C(=O)[C@H](C)C[C@H](C)/C=C/C=C/C=C/1C [Rapa, Rapamycin]
[1]
  Effect on Nanog/GFP expression / ES cell differentiation induced by omission of LIF: did not prevent Nanog/GFP downregulation
